Data as given in PubChem BioAssay AID1259308 (NCATS, 2017)

Purpose: 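Knock-downs that increase output of a recombinant reporter protein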 (primary screen)
System: human HEK293 embryonic kidney cells stably expressing firefly luciferase (HEK-CMV-Luc2-Hygro)
Reagents: single siRNA against human genes, 0.8 pmol siRNA per well
Time to read-out: 72 h
Measured: 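Reporter luminescence and viable-cell signal on separate replicate plates, given as percent of non-targeting control and median/MAD z-scores, plus per-cell luciferase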
Direction: total luciferase, z-score and total luciferase, % of control: higher = more reporter protein produced; luciferase per cell, z-score: higher = more reporter output per viable cell; viable cells, % of control: higher = more viable cells
Active means: 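An siRNA counts as active if its total luciferase robust z-score exceeds 3; genes with two or more such siRNAs out of three were retested with fresh siRNAs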
Calls: active = raised luciferase; inactive = no rise
Here is an unselected part of about 59,000 reagents. About 1,510 of all reagents (2.6%) count as active. 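Calls use total luciferase alone and ignore viability, so some active siRNAs may act by altering cell number.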 The numbers tell different reagents against one gene apart.

The first 2 records, to show the layout:
target gene | reagent | total luciferase, z-score | total luciferase, % of control | luciferase per cell, z-score | viable cells, % of control | Call
ANKS1B (GeneID 56899) | 1 | 0.0603 | 83.1 | 0.0252 | 92.2 | inactive
ANKS1B (GeneID 56899) | 2 | -1.94 | 43.3 | -1.37 | 69.3 | inactive

Results, from the start:
target gene | reagent | total luciferase, z-score | total luciferase, % of control | luciferase per cell, z-score | viable cells, % of control | Call
ANKS1B (GeneID 56899) | 1 | 0.0603 | 83.1 | 0.0252 | 92.2 | inactive
ANKS1B (GeneID 56899) | 2 | -1.94 | 43.3 | -1.37 | 69.3 | inactive
ANKS1B (GeneID 56899) | 3 | -0.528 | 71.4 | -0.356 | 87.6 | inactive
MYL6P5 (GeneID 124685) | 1 | -1.15 | 59 | -0.752 | 80.4 | inactive
MYL6P5 (GeneID 124685) | 2 | -0.751 | 67 | -0.195 | 78.8 | inactive
MYL6P5 (GeneID 124685) | 3 | 0.527 | 92.4 | 0.341 | 94.3 | inactive
TM4SF19 (GeneID 116211) | 1 | -0.642 | 69.1 | -0.821 | 95.9 | inactive
TM4SF19 (GeneID 116211) | 2 | 1.48 | 111 | 0.953 | 96.7 | inactive
TM4SF19 (GeneID 116211) | 3 | -0.819 | 65.6 | -0.867 | 92.1 | inactive
CEACAM5 (GeneID 1048) | 1 | -0.546 | 71 | -0.381 | 87.7 | inactive
CEACAM5 (GeneID 1048) | 2 | -0.676 | 68.4 | 0.616 | 65 | inactive
CEACAM5 (GeneID 1048) | 3 | 0.45 | 90.8 | 0.00115 | 101 | inactive
SDR39U1 (GeneID 56948) | 1 | 5.89 | 199 | 4.39 | 70 | active
SDR39U1 (GeneID 56948) | 2 | 0.332 | 88.5 | 0.485 | 87 | inactive
SDR39U1 (GeneID 56948) | 3 | -0.842 | 65.1 | -1.56 | 110 | inactive
MKRN1 (GeneID 23608) | 1 | 0.366 | 89.2 | -0.0504 | 101 | inactive
MKRN1 (GeneID 23608) | 2 | -0.105 | 79.8 | -0.303 | 96.6 | inactive
MKRN1 (GeneID 23608) | 3 | -0.616 | 69.6 | 0.0528 | 76.7 | inactive
COQ8A (GeneID 56997) | 1 | -0.146 | 79 | 0.272 | 82.2 | inactive
COQ8A (GeneID 56997) | 2 | 0.805 | 97.9 | 0.191 | 104 | inactive
COQ8A (GeneID 56997) | 3 | 2.63 | 134 | 1.58 | 99 | inactive
ZFP64 (GeneID 55734) | 1 | -0.141 | 79.1 | 2.33 | 47.9 | inactive
ZFP64 (GeneID 55734) | 2 | -0.542 | 71.1 | -0.527 | 91.3 | inactive
ZFP64 (GeneID 55734) | 3 | -1.02 | 61.5 | -0.0329 | 69.3 | inactive
SV2A (GeneID 9900) | 1 | -0.17 | 78.5 | -0.49 | 99.8 | inactive
SV2A (GeneID 9900) | 2 | -0.451 | 72.9 | -0.733 | 98.8 | inactive
SV2A (GeneID 9900) | 3 | 0.315 | 88.1 | -0.573 | 115 | inactive
GLTP (GeneID 51228) | 1 | -1.07 | 60.6 | -1.99 | 115 | inactive
GLTP (GeneID 51228) | 2 | 0.274 | 87.3 | 0.184 | 93 | inactive
GLTP (GeneID 51228) | 3 | -0.265 | 76.6 | -0.625 | 101 | inactive
CRHBP (GeneID 1393) | 1 | -2.33 | 35.5 | -2.08 | 68.7 | inactive
CRHBP (GeneID 1393) | 2 | 0.31 | 88 | -0.248 | 105 | inactive
CRHBP (GeneID 1393) | 3 | 0.707 | 96 | 0.128 | 104 | inactive
LY6S-AS1 (GeneID 286122) | 1 | 0.206 | 86 | 0.49 | 84.5 | inactive
LY6S-AS1 (GeneID 286122) | 2 | 0.914 | 100 | 0.955 | 87 | inactive
LY6S-AS1 (GeneID 286122) | 3 | -0.329 | 75.3 | 0.112 | 81.7 | inactive
CCER1 (GeneID 196477) | 1 | -0.341 | 75.1 | 0.0182 | 83.5 | inactive
CCER1 (GeneID 196477) | 2 | 0.362 | 89.1 | -0.174 | 104 | inactive
CCER1 (GeneID 196477) | 3 | 0.206 | 86 | 0.511 | 84 | inactive
PLEKHA5 (GeneID 54477) | 1 | 0.22 | 86.3 | 0.0858 | 94.2 | inactive
PLEKHA5 (GeneID 54477) | 2 | -0.447 | 73 | -0.898 | 103 | inactive
PLEKHA5 (GeneID 54477) | 3 | 0.307 | 88 | -0.206 | 104 | inactive
PGM1 (GeneID 5236) | 1 | -0.0499 | 80.9 | -0.332 | 98.7 | inactive
PGM1 (GeneID 5236) | 2 | -1.13 | 59.5 | -1.11 | 89 | inactive
PGM1 (GeneID 5236) | 3 | 0.608 | 94 | 0.996 | 80.8 | inactive
LOC644667 (GeneID 644667) | 1 | -0.49 | 72.1 | -0.118 | 83.1 | inactive
LOC644667 (GeneID 644667) | 2 | -0.137 | 79.2 | -0.0821 | 90.4 | inactive
LOC644667 (GeneID 644667) | 3 | 4.01 | 162 | 3.09 | 80.1 | active
CCDC14 (GeneID 64770) | 1 | -0.714 | 67.7 | -0.899 | 95.8 | inactive
CCDC14 (GeneID 64770) | 2 | 1.34 | 109 | 1.08 | 91.3 | inactive
CCDC14 (GeneID 64770) | 3 | 0.157 | 85 | -1.09 | 127 | inactive
EPHA8 (GeneID 2046) | 1 | 0.109 | 84.1 | -0.212 | 99.3 | inactive
EPHA8 (GeneID 2046) | 2 | 0.00463 | 82 | 0.619 | 77.8 | inactive
EPHA8 (GeneID 2046) | 3 | -0.549 | 71 | -1.12 | 107 | inactive
PRM1 (GeneID 5619) | 1 | -0.063 | 80.6 | 0.0993 | 87.8 | inactive
PRM1 (GeneID 5619) | 2 | 0.047 | 82.8 | 0.411 | 83.1 | inactive
PRM1 (GeneID 5619) | 3 | -1.01 | 61.9 | -1.01 | 90.2 | inactive
